The text below walks through data of patent US20250381225A1 (DEVELOPMENT CENTER FOR BIOTECHNOLOGY, published 2025).

Sequences of proteins named here, by UniProt entry; tags and fusion partners are left off. Residues count along the entry.
UniProt Q15116, residues 25-167: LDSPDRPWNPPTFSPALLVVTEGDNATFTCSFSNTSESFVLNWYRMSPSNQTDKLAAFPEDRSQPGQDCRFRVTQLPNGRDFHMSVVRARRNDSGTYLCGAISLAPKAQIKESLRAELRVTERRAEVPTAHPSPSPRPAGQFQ

Assay [1] deals with T1, PD1-hFc (UniProt Q15116 25-167).
T1 construct: ELISA coat at 1 ug/ml; not shown: hFc (human Fc)
Kind of assay: ELISA on coated PD1-hFc. (In general: ELISA stands for enzyme-linked immunosorbent assay.)

The target of assay [2] is T1, PD1-hFc. The assay can be described thus: ELISA on PD-1; protein from the CAR plasmid in 293T cells.
Assay [3] deals with T2, recombinant PD-1 protein (UniProt Q15116 25-167, limits assumed).
T2 construct: It may or may not be the same reagent as PD1-hFc
Kind of assay: ELISA, recombinant PD-1 coated at 0.1 ug/well.

These are yes or no findings as the source states them, for the method shown. Some results given as binding are weak or reduced against the parent protein; the word gives no strength. For some assays here: Sequences can lack the tags named with a protein.

B1: humanized antibody 2B6 HdB1 Hd (antibody, V domains shown)
VH: EVQLVESGGGLVQPGGSLRLSCKASGFTFSSYTMSWVRQAPGKGLEWVATISGGGANIYYPDSVKGRFTISRDNSKNTLYLQMNSLRAEDTAVYYCVSPYYAIDFWGQGTLVTVSS
VL: DIQMTQSPSSLSASVGDRVTITCKASQDVGSAVAWYQQKPGKAPKLLIYWASTRHTGVPSRFSGSGSGTDFTLTISSLQPEDFATYYCQQYSTYTWTFGQGTKVEIK
notes: Heavy chain HdB1 with light chain Hd
Regarding B1, in assay [1], the binding entry is recorded as “binds”.

B2: humanized antibody 2B6 HuB1 Hd (antibody, V domains shown)
VH: EVQLVESGGGLVQPGGSLRLSCAASGFTFSSYTMSWVRQAPGKGLEWVATISGGGANIYYPDSVKGRFTISRDNSKNTLYLQMNSLRAEDTAVYYCVSPYYAIDFWGQGTLVTVSS
VL: DIQMTQSPSSLSASVGDRVTITCKASQDVGSAVAWYQQKPGKAPKLLIYWASTRHTGVPSRFSGSGSGTDFTLTISSLQPEDFATYYCQQYSTYTWTFGQGTKVEIK
notes: Heavy chain HuB1 with light chain Hd
For B2, the binding result in assay [1] is reported as “binds”.

B3: recombinant humanized 2B6 HuB1-scFv-Fc (Fc fusion)
scFv: EVQLVESGGGLVQPGGSLRLSCAASGFTFSSYTMSWVRQAPGKGLEWVATISGGGANIYYPDSVKGRFTISRDNSKNTLYLQMNSLRAEDTAVYYCVSPYYAIDFWGQGTLVTVSSGGGGSGGGGSGGGGSDIQMTQSPSSLSASVGDRVTITCKASQDVGSAVAWYQQKPGKAPKLLIYWASTRHTGVPSRFSGSGSGTDFTLTISSLQPEDFATYYCQQYSTYTWTFGQGTKVEIK
notes: Both carry the same printed name and are kept as one molecule; also called 286 HuB1-scFv-Fc; PD-1^2B6 scFv-Fc; not shown: lim
For B3, the binding result in assay [1] and in assay [2] was “binds” in each case.

B4: chimeric anti-human PD-1 2B6 antibody (antibody, V domains shown)
VH: EVKLVESGGGLVKPGGSLKLSCAAAGFTFSSYTMSWVRQTPAKRLEWVATISGGGANIYYPDSVKGRFTISRDNARNTLYLQMSSLRSEDTAMYYCVSPYYAIDFWGQGTSVTVSS
VL: DTVMTQSDKFMSTSVGDRVSITCKASQDVGSAVAWYQQKPGQSPKLLIYWASTRHTGVPDRFTGSGSGTDFTLTISNVQSEDLADYFCQQYSTYTWTFGGGTKLEIK
notes: also called mAb 2B6; M-M
As to B4, the binding entry in assay [3] is “binds”.
